Patent US6020460 (dated 2000)

Assay: general procedure: Boc solid-phase peptide synthesis
Conditions: oxidative folding step, one disulfide bridge, sequence written open

Substance: Gly-Pen-Gly-Arg-Gly-Asp-Ser-Pro-Cys-Ala
- crude HPLC purity: 90%
